{"source": "the supplement of paper PMC8728848", "experiment_in_all_cases": "glycan array binding signal (z-score within array); higher = stronger binding", "conditions_in_all_cases": "glycan notation: IUPAC condensed, linker removed", "key": {"Gal(a1-6)Glc": {"target": "Gal(a1-6)Glc", "how_it_was_run": "(§1)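 Columns mapping to the same glycan were averaged after glycan names were converted to IUPAC-condensed notation. The data come from 3228 arrays in the Consortium for Functional Glycomics database, limited to those with an available protein sequence. Binding is reported as a within-array Z-score averaged across arrays of one protein sequence and across linkers.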"}, "Gal(b1-2)Gal": {"target": "Gal(b1-2)Gal", "how_it_was_run": "as §1"}, "Gal(b1-3)Gal": {"target": "Gal(b1-3)Gal", "how_it_was_run": "as §1"}, "Gal(b1-3)Gal(b1-4)GlcNAc": {"target": "Gal(b1-3)Gal(b1-4)GlcNAc", "how_it_was_run": "as §1"}, "Gal(b1-3)GalNAc": {"target": "Gal(b1-3)GalNAc", "how_it_was_run": "as §1"}, "[1]": {"target": "Gal(b1-3)GalNAc(a1-3)[Fuc(a1-2)]Gal(b1-4)Glc", "how_it_was_run": "as §1"}, "[2]": {"target": "Gal(b1-3)GalNAc(a1-3)[Fuc(a1-2)]Gal(b1-4)GlcNAc", "how_it_was_run": "as §1"}, "Gal(b1-3)GalNAc(b1-3)Gal": {"target": "Gal(b1-3)GalNAc(b1-3)Gal", "how_it_was_run": "as §1"}, "[3]": {"target": "Gal(b1-3)GalNAc(b1-3)Gal(a1-4)Gal(b1-4)Glc", "how_it_was_run": "as §1"}, "[4]": {"target": "Gal(b1-3)GalNAc(b1-4)Gal(b1-4)Glc", "how_it_was_run": "as §1"}, "[5]": {"target": "Gal(b1-3)GalNAc(b1-4)[Neu5Ac(a2-3)]Gal(b1-4)Glc", "how_it_was_run": "as §1"}, "Gal(b1-3)GlcNAc": {"target": "Gal(b1-3)GlcNAc", "how_it_was_run": "as §1"}, "[6]": {"target": "Gal(b1-3)GlcNAc(a1-3)Gal(b1-4)GlcNAc", "how_it_was_run": "as §1"}, "[7]": {"target": "Gal(b1-3)GlcNAc(a1-6)Gal(b1-4)GlcNAc", "how_it_was_run": "as §1"}, "Gal(b1-3)GlcNAc(b1-2)Man": {"target": "Gal(b1-3)GlcNAc(b1-2)Man", "how_it_was_run": "as §1"}, "[8]": {"target": "Gal(b1-3)GlcNAc(b1-2)Man(a1-3)[Gal(b1-3)GlcNAc(b1-2)Man(a1-6)]Man(b1-4)GlcNAc(b1-4)GlcNAc", "how_it_was_run": "as §1"}, "[9]": {"target": "Gal(b1-3)GlcNAc(b1-2)Man(a1-3)[Gal(b1-3)GlcNAc(b1-2)Man(a1-6)]Man(b1-4)GlcNAc(b1-4)[Fuc(a1-6)]GlcNAc", "how_it_was_run": "as §1"}, "[10]": {"target": "Gal(b1-3)GlcNAc(b1-2)Man(a1-3)[GlcNAc(b1-4)][Gal(b1-3)GlcNAc(b1-2)Man(a1-6)]Man(b1-4)GlcNAc(b1-4)GlcNAc", "how_it_was_run": "as §1"}, "[11]": {"target": "Gal(b1-3)GlcNAc(b1-2)[Gal(b1-3)GlcNAc(b1-6)]Man(a1-6)[Gal(b1-3)GlcNAc(b1-2)Man(a1-3)]Man(b1-4)GlcNAc(b1-4)GlcNAc", "how_it_was_run": "as §1"}, "[12]": {"target": "Gal(b1-3)GlcNAc(b1-3)Gal(b1-3)GlcNAc", "how_it_was_run": "as §1"}, "[13]": {"target": "Gal(b1-3)GlcNAc(b1-3)Gal(b1-4)Glc", "how_it_was_run": "as §1"}, "[14]": {"target": "Gal(b1-3)GlcNAc(b1-3)Gal(b1-4)GlcNAc", "how_it_was_run": "as §1"}, "[15]": {"target": "Gal(b1-3)GlcNAc(b1-3)Gal(b1-4)GlcNAc(b1-2)Man(a1-3)[Gal(b1-3)GlcNAc(b1-3)Gal(b1-4)GlcNAc(b1-2)Man(a1-6)]Man(b1-4)GlcNAc(b1-4)GlcNAc", "how_it_was_run": "as §1"}, "[16]": {"target": "Gal(b1-3)GlcNAc(b1-3)Gal(b1-4)GlcNAc(b1-2)[Gal(b1-3)GlcNAc(b1-3)Gal(b1-4)GlcNAc(b1-6)]Man(a1-6)[Gal(b1-3)GlcNAc(b1-3)Gal(b1-4)GlcNAc(b1-2)Man(a1-3)]Man(b1-4)GlcNAc(b1-4)[Fuc(a1-6)]GlcNAc", "how_it_was_run": "as §1"}, "[17]": {"target": "Gal(b1-3)GlcNAc(b1-3)Gal(b1-4)GlcNAc(b1-3)Gal(b1-4)GlcNAc(b1-2)[Gal(b1-3)GlcNAc(b1-3)Gal(b1-4)GlcNAc(b1-3)Gal(b1-4)GlcNAc(b1-6)]Man(a1-6)[Gal(b1-3)GlcNAc(b1-3)Gal(b1-4)GlcNAc(b1-3)Gal(b1-4)GlcNAc(b1-2)Man(a1-3)]Man(b1-4)GlcNAc(b1-4)[Fuc(a1-6)]GlcNAc", "how_it_was_run": "as §1"}, "[18]": {"target": "Gal(b1-3)GlcNAc(b1-3)Gal(b1-4)GlcNAc(b1-6)[Gal(b1-3)GlcNAc(b1-3)]Gal(b1-4)Glc", "how_it_was_run": "as §1"}, "[19]": {"target": "Gal(b1-3)GlcNAc(b1-3)Gal(b1-4)[Fuc(a1-3)]GlcNAc", "how_it_was_run": "as §1"}, "[20]": {"target": "Gal(b1-3)GlcNAc(b1-3)Gal(b1-4)[Fuc(a1-3)]GlcNAc(b1-6)[Gal(b1-3)GlcNAc(b1-3)]Gal(b1-4)Glc", "how_it_was_run": "as §1"}, "[21]": {"target": "Gal(b1-3)GlcNAc(b1-3)GalNAc", "how_it_was_run": "as §1"}, "[22]": {"target": "Gal(b1-3)GlcNAc(b1-6)Gal(b1-4)GlcNAc", "how_it_was_run": "as §1"}, "[23]": {"target": "Gal(b1-3)GlcNAc(b1-6)GalNAc", "how_it_was_run": "as §1"}, "[24]": {"target": "Gal(b1-3)GlcNAc(b1-6)[Gal(b1-3)]GalNAc", "how_it_was_run": "as §1"}, "Gal(b1-3)GlcNAc6S": {"target": "Gal(b1-3)GlcNAc6S", "how_it_was_run": "as §1"}, "[25]": {"target": "Gal(b1-3)[Fuc(a1-4)]GlcNAc", "how_it_was_run": "as §1"}, "[26]": {"target": "Gal(b1-3)[Fuc(a1-4)]GlcNAc(b1-2)Man", "how_it_was_run": "as §1"}, "[27]": {"target": "Gal(b1-3)[Fuc(a1-4)]GlcNAc(b1-2)Man(a1-3)[Gal(b1-3)[Fuc(a1-4)]GlcNAc(b1-2)Man(a1-6)]Man(b1-4)GlcNAc(b1-4)[Fuc(a1-6)]GlcNAc", "how_it_was_run": "as §1"}, "[28]": {"target": "Gal(b1-3)[Fuc(a1-4)]GlcNAc(b1-3)Gal(b1-3)[Fuc(a1-4)]GlcNAc", "how_it_was_run": "as §1"}, "[29]": {"target": "Gal(b1-3)[Fuc(a1-4)]GlcNAc(b1-3)Gal(b1-4)[Fuc(a1-3)]GlcNAc", "how_it_was_run": "as §1"}, "[30]": {"target": "Gal(b1-3)[Fuc(a1-4)]GlcNAc(b1-6)GalNAc", "how_it_was_run": "as §1"}, "[31]": {"target": "Gal(b1-3)[GlcNAc(b1-6)]GalNAc", "how_it_was_run": "as §1"}, "[32]": {"target": "Gal(b1-3)[Neu5Ac(a2-6)]GalNAc", "how_it_was_run": "as §1"}, "[33]": {"target": "Gal(b1-3)[Neu5Ac(a2-6)]GlcNAc(b1-4)Gal(b1-4)Glc", "how_it_was_run": "as §1"}, "[34]": {"target": "Gal(b1-3)[Neu5Ac(b2-6)]GalNAc", "how_it_was_run": "as §1"}, "Gal(b1-4)Gal": {"target": "Gal(b1-4)Gal", "how_it_was_run": "as §1"}, "[35]": {"target": "Gal(b1-4)GalNAc(a1-3)[Fuc(a1-2)]Gal(b1-4)GlcNAc", "how_it_was_run": "as §1"}}, "note": "This is one part of the list.", "data": [{"binder": "XTP3-B-MRH2 (Homo sapiens), Q96DZ1 (protein) EFLSGSYCFRGGVGWWKYEFCYGKHVHQYHEDKDSGKTSVVVGTWNQEEHIEWAKKNTARAYHLQDDGTQTVRMVSHFYGNGDICDITDKPRQVTVKLKCKESDSPHAVTVYMLEPHSCQYILGVESPVICKILDTA", "values": [{"measurement": "glycan array binding signal (z-score)", "setting": "Gal(a1-6)Glc", "result": -0.776}, {"measurement": "glycan array binding signal (z-score)", "setting": "Gal(b1-2)Gal", "result": -0.575}, {"measurement": "glycan array binding signal (z-score)", "setting": "Gal(b1-3)Gal", "result": 0.943}, {"measurement": "glycan array binding signal (z-score)", "setting": "Gal(b1-3)Gal(b1-4)GlcNAc", "result": -0.214}, {"measurement": "glycan array binding signal (z-score)", "setting": "Gal(b1-3)GalNAc", "result": -0.133}, {"measurement": "glycan array binding signal (z-score)", "setting": "[1]", "result": -1.25}, {"measurement": "glycan array binding signal (z-score)", "setting": "[2]", "result": 0.353}, {"measurement": "glycan array binding signal (z-score)", "setting": "Gal(b1-3)GalNAc(b1-3)Gal", "result": -0.492}, {"measurement": "glycan array binding signal (z-score)", "setting": "[3]", "result": -0.32}, {"measurement": "glycan array binding signal (z-score)", "setting": "[4]", "result": -0.209}, {"measurement": "glycan array binding signal (z-score)", "setting": "[5]", "result": 0.148}, {"measurement": "glycan array binding signal (z-score)", "setting": "Gal(b1-3)GlcNAc", "result": -0.191}, {"measurement": "glycan array binding signal (z-score)", "setting": "[6]", "result": -1.67}, {"measurement": "glycan array binding signal (z-score)", "setting": "[7]", "result": -0.955}, {"measurement": "glycan array binding signal (z-score)", "setting": "Gal(b1-3)GlcNAc(b1-2)Man", "result": -0.037}, {"measurement": "glycan array binding signal (z-score)", "setting": "[8]", "result": -0.334}, {"measurement": "glycan array binding signal (z-score)", "setting": "[9]", "result": -0.441}, {"measurement": "glycan array binding signal (z-score)", "setting": "[10]", "result": -0.455}, {"measurement": "glycan array binding signal (z-score)", "setting": "[11]", "result": -0.907}, {"measurement": "glycan array binding signal (z-score)", "setting": "[12]", "result": 0.964}, {"measurement": "glycan array binding signal (z-score)", "setting": "[13]", "result": 0.052}, {"measurement": "glycan array binding signal (z-score)", "setting": "[14]", "result": 1.54}, {"measurement": "glycan array binding signal (z-score)", "setting": "[15]", "result": -0.105}, {"measurement": "glycan array binding signal (z-score)", "setting": "[16]", "result": -0.138}, {"measurement": "glycan array binding signal (z-score)", "setting": "[17]", "result": -0.411}, {"measurement": "glycan array binding signal (z-score)", "setting": "[18]", "result": 2.09}, {"measurement": "glycan array binding signal (z-score)", "setting": "[19]", "result": -0.375}, {"measurement": "glycan array binding signal (z-score)", "setting": "[20]", "result": -0.339}, {"measurement": "glycan array binding signal (z-score)", "setting": "[21]", "result": 0.996}, {"measurement": "glycan array binding signal (z-score)", "setting": "[22]", "result": -0.034}, {"measurement": "glycan array binding signal (z-score)", "setting": "[23]", "result": -0.003}, {"measurement": "glycan array binding signal (z-score)", "setting": "[24]", "result": 0.812}, {"measurement": "glycan array binding signal (z-score)", "setting": "Gal(b1-3)GlcNAc6S", "result": -0.844}, {"measurement": "glycan array binding signal (z-score)", "setting": "[25]", "result": -0.521}, {"measurement": "glycan array binding signal (z-score)", "setting": "[26]", "result": -1.08}, {"measurement": "glycan array binding signal (z-score)", "setting": "[27]", "result": 1.37}, {"measurement": "glycan array binding signal (z-score)", "setting": "[28]", "result": 3.38}, {"measurement": "glycan array binding signal (z-score)", "setting": "[29]", "result": 0.827}, {"measurement": "glycan array binding signal (z-score)", "setting": "[30]", "result": -0.084}, {"measurement": "glycan array binding signal (z-score)", "setting": "[31]", "result": -0.193}, {"measurement": "glycan array binding signal (z-score)", "setting": "[32]", "result": 0.695}, {"measurement": "glycan array binding signal (z-score)", "setting": "[33]", "result": -0.183}, {"measurement": "glycan array binding signal (z-score)", "setting": "[34]", "result": -1.04}, {"measurement": "glycan array binding signal (z-score)", "setting": "Gal(b1-4)Gal", "result": -0.14}, {"measurement": "glycan array binding signal (z-score)", "setting": "[35]", "result": -0.932}]}]}
